Each structure is given as a SMILES string.

The data set relates to rat primary cortical neurons. In words: MEA hazard scoring in rat primary cortical neuronal cultures. The following applies: 113 reference drugs.

Consider `N=C(N)NC(=O)c1nc(Cl)c(N)nc1N` [Amiloride], for which the “correctness of hazard classification against known seizure risk in man” value (“correctness of hazard classification” below) is “false positive”.
With `Clc1ccc2c(c1)C(N1CCNCC1)=Nc1ccccc1O2` [Amoxapine], the “correctness of hazard classification” value is “not correctly classified”.
As to `COc1cc2c(cc1OC)C(=O)C(CC1CCN(Cc3ccccc3)CC1)C2` (stereo not shown) [Donepezil], the “correctness of hazard classification” value is listed as “not correctly classified”.
Take `NC[C@H]1CC[C@H](C(=O)O)CC1` [Tranexamic Acid]: the “correctness of hazard classification” value was “not correctly classified”.

For the origin of these results see publication PMC11170107, “Development of a new hazard scoring system in primary neuronal cell cultures for drug-induced acute neuronal toxicity identification in early drug discovery” (Frontiers in Pharmacology, 2024).
